Experimental data reported in PMC10163288.
The other results are listed elsewhere or left out.

B1: il2ra_site1_3nfp_normal_mot_HHH_b1_00630_af2_000000193_0001_42_55_H_._HHH_b2_03971_0001_0000100002_0000001_0 (protein)
chain: SSSSTEELHELSRLVEEAYRALSEGNEEEVRKLLEEARQLAEELNDKVARRLLEEIEKRLSSSSS
B2: il2ra_site1_1z92_sap_28_mot_bd8a29364cd82b069db53908a9e83e48_0001_af2_000000035_0001_34_48_H_._9a199a1b38a1c46b7bc70ae92fd97a63_0001_1_0001_0000200022_0000001_0 … (protein)
chain: SSSSSDKKEVYELFEEAQELLENGNPEEAERVLQEALELAEKLNNELMLRSIRLALSADSSSSSS
B3: il2ra_site2_3nfp_sap_34_mot_HHH_b2_01071_af2_000000008_0001_40_57_H_._4f73251c1d0b1deba3e57965a38797fb_0001_1_0001_0000100010_0000001_0_0001_af2pred_0001_af2pre … (protein)
chain: SSSSDLEEEVERLLEEVERLLKEGDEEEAEKLLKRAATIASEARNHELFAIVTALLEKLDSSSSS
B4: il2ra_site2_2erj_sap_20_mot_HHH_b1_00682_af2_000000112_0001_43_57_H_._HHH_b1_06086_0001_0000100007_0000001_1_0001 (protein)
chain: DLHEVYIAANVVAKAIPDPEELREVVEEIMRLAQEDPEEALRFAEEVIERLDPRLLEQLKELREK
B5: il2ra_site2_3nfp_normal_mot_HHH_b2_07186_000000029_0001_1_18_H_._HHH_b1_01329_0001_0000100001_0000001_0 (protein)
chain: SSSSSDEKLEKMVELAIESAESLGDEEVLERLRELLERAEEEGDFRLLLEAYALIARARRNSSSS
B6: il2ra_site1_1z92_normal_mot_9c3e5e2d2b9ffb70dc788f52fbfab6d5_0001_1_af2_000000019_0001_53_65_H_._HHH_b1_02055_af2_0001_0000100007_0000001_0 (protein)
chain: SSSSEEELEEFAKEVVEKLKKEFDLSEEQEEELQRVAERLIEAGSDPEKIEKILRKLAEANSSSS
B7: il2ra_site1_2b5i_sap_15_mot_0e5a94e4a5addaac739760efb25f0f5d_0001_000000246_0001_18_32_H_._HHH_b2_04525_0001_0000300019_0000001_0_0001 (protein)
chain: SSSSDNELIRFATEVVWRLAYRLGLSREQMKILNELAAELADKGLSEEEIEELLREEAEELSSSS
B8: il2ra_site2_2erj_sap_22_mot_HHH_b2_08005_af2_000000017_0001_39_52_H_._HHH_b2_05393_0001_0000400035_0000001_0_0001 (protein)
chain: SSSSDEELHRLFKLAVRILALIARGNPEEAKELLEELKELAEEANSDNAKEIVETLEKRLSSSSS
B9: il2ra_site1_1z92_sap_14_mot_HHH_b1_00285_000000009_0001_24_39_H_._HHH_b2_00843_0001_0000700058_0000001_0_0001_af2pred_0001_af2pred_1 (protein)
chain: SSSSDEKLRRDARIIVEAAVRAAGLSEEQEEELEEVARRLAEEGFSAHEIARILDEVALRLSSSS
B10: il2ra_site1_2b5i_normal_mot_HHH_b2_04910_000000118_0001_1_19_H_._HHH_b1_00509_0001_0000100007_0000001_0_af2pred_dldesign_0_af2pred (protein)
chain: SSSSDPELAKRLKETLKEADELYATDPAAAKALLEALLKELKAAGKKGFVKFVERVLESLESSSS
B11: il2ra_site2_3nfp_normal_mot_HHH_b2_06150_000000217_0001_39_53_H_._HHH_b1_06882_af2_0001_0000100003_0000001_0 (protein)
chain: SSSSDEEELRELLERIEKLFKEGDDEEARRLIAELTHLAYELNDSEIFFLLAELLFKLAQRSSSS
B12: il2ra_site1_2b5i_normal_mot_HHH_b2_04910_000000118_0001_1_19_H_._HHH_b1_02607_0001_0000300018_0000001_0_af2pred_dldesign_0_af2pred (protein)
chain: SSSSDFAEIRRLIEEADALYKAGKPEEAIKVLEEALKLAKERGAKALVRYIELALEQILASSSSS
B13: il2ra_site2_2erj_normal_mot_HHH_b1_04294_af2_000000096_0001_1_18_H_._HHH_b1_00002_0001_0000600021_0000001_0 (protein)
chain: SSSSDLEEAVEELEQLLREGDPEKVSKVAWELLRILHKVTDPELLREAARVLEEALEFLQKSSSS
B14: il2ra_site1_2b5i_sap_12_mot_HHH_b2_04633_000000097_0001_38_52_H_._HHH_b1_08698_af2_0001_0000200011_0000001_0_0001_af2pred_dldesign_0_af2pred (protein)
chain: SSSSSREELEELLRKLKEAVAAKDLEKAEELAKEIADLADELGDRETIKEAVRLLYRVRIASSSS
B15: il2ra_site1_2b5i_sap_9_mot_HHH_b2_07873_af2_000000005_0001_23_39_H_._HHH_b1_06695_0001_0000100007_0000001_0_0001 (protein)
chain: SSSSNEEARELQELFHEVDRLDKEGDPEEARRLAEEALRLAEELNNRSLFRSLEFALRSLSSSSS
B16: il2ra_site2_3nfp_sap_18_mot_HHH_b2_00822_000000043_0001_41_55_H_._9b27c49f4244f023ba89377d59a42b61_0001_0001_0000200043_0000001_0_0001 (protein)
chain: SSSSSDVEERVRELLEEAEQTEDPEEVRKLLAEAAQLAWEARDPELFFAVAEVLFRLEQSSSSSS
B17: il2ra_site1_1z92_normal_mot_22370d59370c406a0c205a431f537cfa_0001_000000027_0001_1_14_H_._HHH_b1_00743_af2_0001_0000600008_0000001_0 (protein)
chain: SSSDKREVFEVLRKISHLFANGNPEEAEELAERLQEELRKRGDEAALRDVEKFVKLVEERNSSSS
B18: il2ra_site1_2b5i_normal_mot_HHH_b2_04353_af2_000000128_0001_1_17_H_._HHH_b1_06468_af2_0001_0000100002_0000001_0_af2pred_dldesign_0_af2pred (protein)
chain: SSSSSSLEDEVYRLYKEATELYRQGKVEEAKEVLKKALELAKKGKFKVQEKQLKELLEKLSSSSS
B19: il2ra_site1_1z92_sap_17_mot_HHH_b1_07156_000000060_0001_21_38_H_._HEEHE_0687_0001_0000200029_0000001_0_0001 (protein)
chain: SLEEVEEELKKLVNDPAARQAIEIAVKLAKEANLPPEALLRNLAIFARRFGDEELLEAVEELLRK

Target: il2ra, P01589
Experiment: yeast display titration

Apparent Kd, inactive:
B1 no binding seen
B2 no binding seen
B3 no binding seen
B4 no binding seen
B5 no binding seen
B6 no binding seen
B7 no binding seen
B8 no binding seen
B9 no binding seen
B10 no binding seen
B11 no binding seen
B12 no binding seen
B13 no binding seen
B14 no binding seen
B15 no binding seen
B16 no binding seen
B17 no binding seen
B18 no binding seen
B19 no binding seen

Reprinted at random: 2 records from the list.
Apparent Kd, inactive:
B13 no binding seen
B11 no binding seen
